Experimental data reported in patent US20150368327A1.
These are yes or no findings as the source states them, for the method shown. Some results given as binding are weak or reduced against the parent protein; the word gives no strength. Tags and fused reporters may be left off the sequences shown.

What was measured:
[1] = molecular target: T1, recombinant human Sema 3A-Fc chimeric protein (R&D systems, #1250-S3-02J) (human) (UniProt Q14563); assay: sandwich ELISA, serum-free samples, Condition 3; this antibody as capture, clone No. 240-40 avian antibody as primary
T1 sequence (looked up): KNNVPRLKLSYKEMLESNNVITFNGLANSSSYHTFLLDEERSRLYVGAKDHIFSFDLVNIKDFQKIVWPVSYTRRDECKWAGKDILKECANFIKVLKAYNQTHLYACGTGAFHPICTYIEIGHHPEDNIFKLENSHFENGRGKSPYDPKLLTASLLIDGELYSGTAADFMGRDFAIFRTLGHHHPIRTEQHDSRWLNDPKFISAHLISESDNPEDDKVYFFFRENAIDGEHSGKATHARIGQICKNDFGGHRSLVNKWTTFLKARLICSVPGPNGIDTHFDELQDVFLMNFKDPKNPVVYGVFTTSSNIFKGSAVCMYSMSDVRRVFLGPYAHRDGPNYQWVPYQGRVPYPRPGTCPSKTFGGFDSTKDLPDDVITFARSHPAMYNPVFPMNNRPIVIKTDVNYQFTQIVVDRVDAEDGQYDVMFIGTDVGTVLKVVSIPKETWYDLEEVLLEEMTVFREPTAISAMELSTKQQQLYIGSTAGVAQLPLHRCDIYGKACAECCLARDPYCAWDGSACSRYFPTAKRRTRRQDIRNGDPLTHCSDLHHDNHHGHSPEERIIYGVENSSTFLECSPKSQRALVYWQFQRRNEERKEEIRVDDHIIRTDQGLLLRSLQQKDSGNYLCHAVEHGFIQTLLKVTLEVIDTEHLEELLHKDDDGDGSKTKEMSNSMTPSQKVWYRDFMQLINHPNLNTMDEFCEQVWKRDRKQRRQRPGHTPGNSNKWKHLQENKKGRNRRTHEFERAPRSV

[2] = molecular target: T1, recombinant human Sema 3A-Fc chimeric protein (R&D systems, #1250-S3-02J) (human); assay: sandwich ELISA, samples in human serum diluted five times: Humanized-2 coated as capture antibody, Sema 3A-Fc about 0.001 to 2 nM, primary antibodies of Conditions 1 and 2
[3] = molecular target: T1, recombinant human Sema 3A-Fc chimeric protein (R&D systems, #1250-S3-02J) (human); assay: sandwich ELISA, serum-containing samples, Condition 1; this antibody as capture, clone No. 165 avian-mouse chimeric antibody as primary
[4] = molecular target: T1, recombinant human Sema 3A-Fc chimeric protein (R&D systems, #1250-S3-02J) (human); assay: sandwich ELISA, serum-free samples: Humanized-2 coated as capture antibody, Sema 3A-Fc about 0.001 to 1 nM, primary antibodies m9, m10, m11, m12 at 0.1 µg/mL
[5] = molecular target: T1, recombinant human Sema 3A-Fc chimeric protein (R&D systems, #1250-S3-02J) (human); assay: sandwich ELISA, serum-free samples, Condition 1; this antibody as capture, clone No. 165 avian-mouse chimeric antibody as primary
[6] = molecular target: T1, recombinant human Sema 3A-Fc chimeric protein (R&D systems, #1250-S3-02J) (human); assay: sandwich ELISA, serum-free samples, Condition 4; this antibody as capture, clone No. 255-72 avian antibody as primary
[7] = molecular target: T1, recombinant human Sema 3A-Fc chimeric protein (R&D systems, #1250-S3-02J) (human); assay: sandwich ELISA, serum-free samples, Condition 2; this antibody as capture, clone No. 582 avian-mouse chimeric antibody as primary
[8] = molecular target: T1, recombinant human Sema 3A-Fc chimeric protein (R&D systems, #1250-S3-02J) (human); assay: sandwich ELISA, serum-containing samples, Condition 2; this antibody as capture, clone No. 582 avian-mouse chimeric antibody as primary
[9] = molecular target: T1, recombinant human Sema 3A-Fc chimeric protein (R&D systems, #1250-S3-02J) (human); assay: sandwich ELISA, serum-free samples: capture Humanized-2, Sema 3A-Fc varied, primary antibody of clone No. 165 at 0.1 µg/mL, anti-mouse IgG-HRP
[10] = molecular target: T1, recombinant human Sema 3A-Fc chimeric protein (R&D systems, #1250-S3-02J) (human); assay: sandwich ELISA, samples in human serum diluted five times: capture Humanized-2, Sema 3A-Fc varied, primary antibody of clone No. 165 at 0.1 µg/mL, anti-mouse IgG-HRP
[11] = molecular target: T1, recombinant human Sema 3A-Fc chimeric protein (R&D systems, #1250-S3-02J) (human); assay: sandwich ELISA, samples in human serum diluted five times: capture Humanized-2, Sema 3A-Fc varied, primary antibody of Condition 2 (clone No. 582 by Table 7; the legend box of the panel reads 165) at 0.1 µg/mL, anti-mouse IgG-HRP
[12] = molecular target: T1, recombinant human Sema 3A-Fc chimeric protein (R&D systems, #1250-S3-02J) (human); assay: sandwich ELISA, serum-free samples: capture Humanized-2, Sema 3A-Fc varied, primary antibody of clone No. 582 at 0.1 µg/mL, anti-mouse IgG-HRP
[13] = molecular target: T1, recombinant human Sema 3A-Fc chimeric protein (R&D systems, #1250-S3-02J) (human); assay: sandwich ELISA, serum-free samples: capture Humanized-2, Sema 3A-Fc varied, primary avian antibody of clone No. 240-40 at 0.1 µg/mL, biotin-labelled anti-avian IgM and streptavidin-HRP
[14] = molecular target: T1, recombinant human Sema 3A-Fc chimeric protein (R&D systems, #1250-S3-02J) (human); assay: sandwich ELISA, serum-free samples, Condition 5; this antibody as capture, clone No. 4-2 avian-mouse chimeric antibody as primary
[15] = molecular target: T1, recombinant human Sema 3A-Fc chimeric protein (R&D systems, #1250-S3-02J) (human); assay: sandwich ELISA, serum-free samples: capture Humanized-2, Sema 3A-Fc varied, primary avian antibody of clone No. 255-72 at 0.1 µg/mL, biotin-labelled anti-avian IgM and streptavidin-HRP
[16] = molecular target: T1, recombinant human Sema 3A-Fc chimeric protein (R&D systems, #1250-S3-02J) (human); assay: sandwich ELISA, serum-free samples, Condition 6; this antibody as capture, clone No. 4-2 avian-mouse chimeric antibody as primary
[17] = molecular target: T1, recombinant human Sema 3A-Fc chimeric protein (R&D systems, #1250-S3-02J) (human); assay: sandwich ELISA, serum-free samples, Condition 7; this antibody as capture, clone No. 4-2 avian-mouse chimeric antibody as primary
[18] = molecular target: T1, recombinant human Sema 3A-Fc chimeric protein (R&D systems, #1250-S3-02J) (human); assay: sandwich ELISA, serum-free samples, Condition 8; this antibody as capture, clone No. 4-2 avian-mouse chimeric antibody as primary

B1: Anti-Sema 3A humanized antibody (Humanized-2) (clone No. 4-2 strain-derived) (antibody, human IgG1, lambda, V domains shown)
VH: EVQLLESGGGLVQPGGSLRLSCAASGFTFSSYPMGWVRQAPGKGLEWVAGIDDDGDSDTRYAPAVKGRATISRDNSKNTVYLQMNSLRAEDTAVYYCAKHTGIGANSAGSIDAWGQGTLVTVSS
VL: SYELTQPPSVSVSPGQTARITCSGGGSYTGSYYYGWYQQKPGQAPVTVIYYNNKRPSDIPERFSGSLSGTTNTLTISGVQAEDEADYYCGSADNSGDAFGTGTKVTVLG
[1]
  binding: binds
[2]
  binding: binds
[3]
  binding: binds
[4]
  binding: binds
[5]
  binding: binds
[6]
  binding: binds
[7]
  binding: binds
[8]
  binding: binds

B2: Anti-Sema 3A avian-mouse chimeric antibody (clone No. 165 strain-derived) (antibody, V domains shown)
VH: AVTLDESGGGLQTPGGGLSLVCKASGFTFSSYEMQWVRQAPGKGLEWVAGIYTGSTWYGAAVKGRATISRDNGQSTVRLQLNNLRAEDTAIYYCAKSGIGVNSAAFIDAWGHGTEVIVSS
VL: ALTQPASVSANPGETVKITCSGGGSYGGSYYYGWYQQKAPGSAPVTVIYNNNKRPSNIPSRFSGSLSGSTNTLTITGVRADDEAVYFCGSADNSGTAFGAGTTLTVL
[9]
  binding: binds
[10]
  binding: binds

B3: Anti-Sema 3A avian-mouse chimeric antibody (clone No. 582 strain-derived) (antibody, V domains shown)
VH: AVTLDESGGGLQTPGGALSLVCKASGFTMSSYEMQWVRQAPGKGLEWVAAIYTRSTWYGAAVKGRATISRDNGQSTVRLQLNNLRAEDTGTYYCAKSGIGLNSAAFIDAWGHGTEVIVSS
VL: ALTQPASVSANPGETVKITCSGGGSYGGSYYYGWYQQKAPGSAPVTVIYTNNKRPSNIPSRFSGSLSGSTNTLTITGVRADDEAVYFCGSADNSGTAFGAGTTLTVL
[11]
  binding: binds
[12]
  binding: binds

B4: Anti-Sema 3A avian antibody (clone No. 240-40 strain-derived) (antibody, V domains shown)
VH: AVTLDESGGGLQTPGGALSLVCKASGFTFSSYDMNWVRQAPGKGLEWVAGIYSGSSTYYGAAVKGRATISRDNGQSTLRLQLNNLRAEDTGIYYCAKSAIPVNSAGSIDAWGHGTEVIVSS
VL: ALTQPASVSANPGETVKITCSGGGSYGGSYYYSWHQQKSPGSALVTVIYYNNKRPSDIPSRFSGSLSGSTNTLTITGVRADDEAVYFCGSADTSGTAFGAGTTLTVL
[13]
  binding: binds
[14]
  binding: binds

B5: Anti-Sema 3A avian antibody (clone No. 255-72 strain-derived) (antibody, V domains shown)
VH: AVTLDESGGGLQTPGGALSLVCKASGFTFSSYEMQWVRQAPGKGLEWVAGIYSGSTWYGAAVKGRATISRDNGQSTVRLQLNNLRAEDTGTYYCAKSGIGFNSAGSIDAWGHGTEVIVSS
VL: ALTQPASVSANPGETVKITCSGGGSYGGSYYYSWHQQKSPGSALVTVIYYNNKRPSDIPSRFSGSLSGSTNTLTITGVRADDEAVYFCGSADNSGSAFGAGTTLTVL
[15]
  binding: binds
[16]
  binding: binds

B6: Anti-Sema 3A avian-human chimeric antibody (IgG1) (clone No. 240-40 strain-derived) (antibody, V domains shown)
VH: AVTLDESGGGLQTPGGALSLVCKASGFTFSSYDMNWVRQAPGKGLEWVAGIYSGSSTYYGAAVKGRATISRDNGQSTLRLQLNNLRAEDTGIYYCAKSAIPVNSAGSIDAWGHGTEVIVSS
VL: ALTQPASVSANPGETVKITCSGGGSYGGSYYYSWHQQKSPGSALVTVIYYNNKRPSDIPSRFSGSLSGSTNTLTITGVRADDEAVYFCGSADTSGTAFGAGTTLTVL
[17]
  binding: binds

B7: Anti-Sema 3A avian-human chimeric antibody (IgG1) (clone No. 255-72 strain-derived) (antibody, V domains shown)
VH: AVTLDESGGGLQTPGGALSLVCKASGFTFSSYEMQWVRQAPGKGLEWVAGIYSGSTWYGAAVKGRATISRDNGQSTVRLQLNNLRAEDTGTYYCAKSGIGFNSAGSIDAWGHGTEVIVSS
VL: ALTQPASVSANPGETVKITCSGGGSYGGSYYYSWHQQKSPGSALVTVIYYNNKRPSDIPSRFSGSLSGSTNTLTITGVRADDEAVYFCGSADNSGSAFGAGTTLTVL
[18]
  binding: binds
